The values that follow come from paper PMC11148184.

Protein sequences, listed by entry. Tags and fused reporters are not part of them.
UniProt Q93009: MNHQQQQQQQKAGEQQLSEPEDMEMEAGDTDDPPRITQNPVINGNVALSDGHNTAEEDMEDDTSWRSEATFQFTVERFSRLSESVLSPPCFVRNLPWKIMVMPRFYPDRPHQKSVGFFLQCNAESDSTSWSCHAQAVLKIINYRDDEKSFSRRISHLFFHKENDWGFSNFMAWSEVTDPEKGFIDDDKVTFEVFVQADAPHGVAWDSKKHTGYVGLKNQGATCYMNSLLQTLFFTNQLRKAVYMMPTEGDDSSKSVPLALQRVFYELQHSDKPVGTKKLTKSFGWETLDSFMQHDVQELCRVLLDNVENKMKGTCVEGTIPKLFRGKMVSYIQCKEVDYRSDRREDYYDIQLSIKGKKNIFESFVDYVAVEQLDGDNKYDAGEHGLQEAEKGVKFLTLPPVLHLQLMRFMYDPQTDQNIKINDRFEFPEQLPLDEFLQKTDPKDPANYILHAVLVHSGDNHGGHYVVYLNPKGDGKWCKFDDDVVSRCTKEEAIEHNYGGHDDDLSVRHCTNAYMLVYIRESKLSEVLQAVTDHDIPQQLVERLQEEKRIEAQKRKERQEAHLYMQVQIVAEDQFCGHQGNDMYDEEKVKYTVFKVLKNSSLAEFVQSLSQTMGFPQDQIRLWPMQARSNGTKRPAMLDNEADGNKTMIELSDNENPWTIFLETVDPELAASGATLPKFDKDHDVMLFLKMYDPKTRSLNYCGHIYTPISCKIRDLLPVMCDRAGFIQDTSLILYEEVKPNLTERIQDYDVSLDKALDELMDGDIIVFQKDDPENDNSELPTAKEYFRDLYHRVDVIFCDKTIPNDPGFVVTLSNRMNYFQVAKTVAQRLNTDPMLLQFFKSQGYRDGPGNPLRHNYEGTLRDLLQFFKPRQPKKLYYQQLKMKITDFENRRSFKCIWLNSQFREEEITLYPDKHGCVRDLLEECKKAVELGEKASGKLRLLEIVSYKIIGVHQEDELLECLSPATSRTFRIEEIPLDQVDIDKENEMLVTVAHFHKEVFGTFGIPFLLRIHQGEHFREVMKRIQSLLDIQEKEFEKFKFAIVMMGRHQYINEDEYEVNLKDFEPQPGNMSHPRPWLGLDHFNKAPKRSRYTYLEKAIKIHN

The target of the test is FLAG-tagged full-length USP7 (UniProt Q93009). The experiment in a line: co-IP; HEK 293 cells with inducible FLAG-USP7 transfected with HA-C16orf72/HAPSTR1; lysates with or without doxycycline induction immunoprecipitated with FLAG antibody; Western blot of HA.

Results are given in words; binding and its absence hold for the method and conditions named. Binding seen in cells or lysates may run through a third protein. Some entries that bind do so weakly or less than the wild type. Tags and fused reporters may be left off the sequences shown.

B1: HA-tagged C16orf72/HAPSTR1 (protein, UniProt Q14CZ0 1-275)
chain: MEERKEEGEAEIQEHGPEHWFSKWERQCLAEAEQDEQLPPELQEEAAAAAQPEHKQQKLWHLFQNSATAVAQLYKDRVCQQPGLSLWVPFQNAATAVTNLYKESVDTHQRSFDIGIQIGYQRRNKDVLAWVKKRRRTIRREDLISFLCGKVPPPRNSRAPPRLTVVSPNRATSTETSSSVETDLQPFREAIALHGLSGAMASISVRSSTPGSPTHVSSGSNASRRRNGLHDVDLNTFISEEMALHLDNGGTRKRTSAQCGDVITDSPTHKRNRMI
As to B1, the binding result is “binds”.
